From patent US20220289865A1 (MINERVA BIOTECHNOLOGIES, published 2022) come the findings set out here.

Chains of the proteins cited; added tags and fusions are not shown. Lines headed by an entry give the natural chain unless they say otherwise; changes in a name come on top. Residues count along the entry.
UniProt P15941, residues 1110-1255: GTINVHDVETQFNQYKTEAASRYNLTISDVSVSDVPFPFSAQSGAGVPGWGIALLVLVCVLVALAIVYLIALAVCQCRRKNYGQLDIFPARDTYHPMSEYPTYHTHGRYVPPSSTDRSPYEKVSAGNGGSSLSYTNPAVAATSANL
UniProt Q9Y5B8: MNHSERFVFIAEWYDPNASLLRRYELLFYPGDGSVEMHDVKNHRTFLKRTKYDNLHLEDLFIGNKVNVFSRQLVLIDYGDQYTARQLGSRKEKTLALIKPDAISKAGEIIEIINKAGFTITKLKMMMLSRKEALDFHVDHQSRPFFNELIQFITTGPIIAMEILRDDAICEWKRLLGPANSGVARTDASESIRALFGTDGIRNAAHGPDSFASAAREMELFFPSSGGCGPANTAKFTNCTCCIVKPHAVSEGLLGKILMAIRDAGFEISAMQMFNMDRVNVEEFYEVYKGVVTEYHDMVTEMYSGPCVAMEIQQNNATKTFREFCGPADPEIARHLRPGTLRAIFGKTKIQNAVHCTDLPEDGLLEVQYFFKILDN

Results are given in words; binding and its absence hold for the method and conditions named. Binding seen in cells or lysates may run through a third protein. Some entries that bind do so weakly or less than the wild type.

The target of test [1] is MUC1* (cleaved MUC1 growth factor receptor) of human cells (human) (UniProt P15941). In words: co-immunoprecipitation from T47D extracts with Ab-5, Western blot. A general note: A western blot detects proteins with antibodies after separation by electrophoresis.
Test [2] has the same target. Put plainly: co-immunoprecipitation from T47D and stem cell extracts with Ab-5, Western blot.
For test [3] the target is unchanged. Put plainly: co-immunoprecipitation from iPS7 and HES3 stem cell extracts with Ab-5, Western blot.
For test [4] the target is unchanged. In words: co-immunoprecipitation with Ab-5, Western blot.

For “NME7-X1 (~30 kDa NME7 isoform) (from UniProt Q9Y5B8 125-376) (ligand)”, the binding result in test [1], in test [2] and in test [3] was “binds” each time.

B1: native human NME6 from cell lysates (ligand)
chain: MTQNLGSEMASILRSPQALQLTLALIKPDAVAHPLILEAVHQQILSNKFLIVRMRELLWRKEDCQRFYREHEGRFFYQRLVEFMASGPIRAYILAHKDAIQLWRTLMGPTRVFRARHVAPDSIRGSFGLTDTRNTTHGSDSVVSASREIAAFFPDFSEQRWYEEEEPQLRCGPVCYSPEGGVHYVAGTGGLGPA
Regarding B1, the binding result in test [4] was “binds”.
